For at least one entry, the source does not settle the construct or the ends of the probe. For some assays here: At least one result comes from cells or an extract, where the contact may be indirect.
What was measured:
Test in all cases: binding assay
[1] = biological target: PTB (hnRNP I, p50) (Bos taurus) (UniProt Q8WN55); settings: UV crosslinking with RNase T1/A then SDS-PAGE; 15 mM KCl, yeast tRNA, 30 C; binding activity followed through purification; purified native protein; label: alpha-32P-UTP
[2] = tested on: p25 (PTB-T related protein) (Bos taurus); settings: UV crosslinking with RNase T1/A then SDS-PAGE; 15 mM KCl, yeast tRNA, 30 C; binding activity followed through purification; purified native protein; label: alpha-32P-UTP
[3] = biological target: p25 (PTB-T) (Homo sapiens) (UniProt P26599); settings: UV crosslinking; binding mapped to nt 468-835; cell extract; protein in an extract; protein details: Jurkat and PBL extracts; label: alpha-32P-UTP
[4] = tested on: p40 CD154 3'-UTR binding protein (Homo sapiens); settings: UV crosslinking; binding mapped to nt 468-835; cell extract; protein in an extract; protein details: Jurkat and PBL extracts; label: alpha-32P-UTP
[5] = biological target: p50 (PTB) (Homo sapiens) (UniProt P26599); settings: UV crosslinking; binding mapped to nt 468-835; cell extract; protein in an extract; protein details: Jurkat and PBL extracts; label: alpha-32P-UTP

Chains of the proteins cited; added tags and fusions are not shown. A change or cut given only in a name is not applied to a line headed by its entry. Chains listed by the source or under a name are the forms on record and can include a tag or linker.
UniProt Q8WN55: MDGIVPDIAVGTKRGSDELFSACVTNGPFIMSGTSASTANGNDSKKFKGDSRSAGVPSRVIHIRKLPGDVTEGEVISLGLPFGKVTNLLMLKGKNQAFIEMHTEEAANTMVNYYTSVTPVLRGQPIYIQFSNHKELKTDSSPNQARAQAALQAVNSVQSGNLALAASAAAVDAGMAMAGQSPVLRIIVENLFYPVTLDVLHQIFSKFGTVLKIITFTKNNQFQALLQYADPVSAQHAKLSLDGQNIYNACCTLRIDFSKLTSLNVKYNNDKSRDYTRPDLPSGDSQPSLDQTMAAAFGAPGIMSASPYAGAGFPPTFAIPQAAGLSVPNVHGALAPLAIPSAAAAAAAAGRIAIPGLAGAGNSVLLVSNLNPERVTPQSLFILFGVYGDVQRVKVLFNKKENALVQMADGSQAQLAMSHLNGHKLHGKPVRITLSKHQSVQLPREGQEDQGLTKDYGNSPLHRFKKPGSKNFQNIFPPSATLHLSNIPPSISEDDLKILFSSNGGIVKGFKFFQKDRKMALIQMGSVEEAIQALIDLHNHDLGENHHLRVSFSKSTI
UniProt P26599, other isoform, or with tags, fused parts or gaps: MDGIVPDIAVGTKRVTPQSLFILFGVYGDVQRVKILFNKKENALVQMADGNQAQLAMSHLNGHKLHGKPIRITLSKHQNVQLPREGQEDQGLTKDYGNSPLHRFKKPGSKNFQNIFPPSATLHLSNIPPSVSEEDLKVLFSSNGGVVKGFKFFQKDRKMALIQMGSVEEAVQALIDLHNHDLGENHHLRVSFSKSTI
p25 (PTB-T related protein) (Bos taurus), one chain, as listed by the source: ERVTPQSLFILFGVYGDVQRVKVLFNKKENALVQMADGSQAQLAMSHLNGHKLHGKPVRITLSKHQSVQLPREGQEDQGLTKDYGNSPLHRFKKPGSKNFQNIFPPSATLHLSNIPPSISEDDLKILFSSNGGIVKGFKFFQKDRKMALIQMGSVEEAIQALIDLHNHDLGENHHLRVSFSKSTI

Measured: binding result

CAGGCUCUAGAACGUCUAACACAGUGGAGAACCGAAACCCCCCCCCCCCCCCCCGCCACCCUCUCGGACAGUUAUUCAUUCUCUUUCAAUCUCUCUCUCUCCAUCUCUCUCUUUCAGUCUCUCUCUCUCAACCUCUUUCUUCCAAUCUCUCUUUCUCAAUCUCUCUGUUUCCCUUUGUCAGUCUCUUCCCUCCCCCAGUCUCUCUUCUCUCCCCCUUUCUAACACACACACACACACACACACACACACACACACACACACACACACACACACACACACACACACAGAGUCAGGCCGUUGCUAGUCAGUUCUCUUCUUUCCACCCUGUCCCUAUCUCUACCACUAUAGAUGAGGGUGAGGAGUAG [CD154 3'-UTR 468-835]
binds: all assays above

Reference: patent US20050033020
